Results reported in paper PMC11898282.
Results are given in words; binding and its absence hold for the method and conditions named. Binding seen in cells or lysates may run through a third protein. Some entries that bind do so weakly or less than the wild type. For some assays here: Sequences can lack the tags named with a protein.

By UniProt entry, the sequences of proteins in these tests, tags left out.
UniProt P67809: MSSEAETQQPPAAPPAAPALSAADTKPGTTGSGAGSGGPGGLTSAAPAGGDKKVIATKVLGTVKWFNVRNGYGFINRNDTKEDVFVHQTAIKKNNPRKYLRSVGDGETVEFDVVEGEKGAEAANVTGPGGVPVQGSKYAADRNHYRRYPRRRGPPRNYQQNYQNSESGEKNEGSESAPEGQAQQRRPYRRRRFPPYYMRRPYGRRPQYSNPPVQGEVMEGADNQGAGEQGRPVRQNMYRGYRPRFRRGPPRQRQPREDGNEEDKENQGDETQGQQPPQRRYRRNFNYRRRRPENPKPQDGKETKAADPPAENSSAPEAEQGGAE

T1: Flag-tagged TMBIM1 (transmembrane BAX inhibitor motif-containing 1) (human) (UniProt Q969X1)
T1 sequence: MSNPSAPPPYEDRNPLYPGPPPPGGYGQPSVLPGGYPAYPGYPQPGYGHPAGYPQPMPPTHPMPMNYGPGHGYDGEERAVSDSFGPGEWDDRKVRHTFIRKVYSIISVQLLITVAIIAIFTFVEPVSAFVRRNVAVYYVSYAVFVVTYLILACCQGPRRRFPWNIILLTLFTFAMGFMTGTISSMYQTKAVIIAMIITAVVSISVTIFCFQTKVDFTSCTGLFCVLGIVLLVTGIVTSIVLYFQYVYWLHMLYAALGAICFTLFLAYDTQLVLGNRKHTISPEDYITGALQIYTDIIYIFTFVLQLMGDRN


Columns and labels:
[1] = biological target: T1, Flag-tagged TMBIM1 (transmembrane BAX inhibitor motif-containing 1) (human); assay: co-IP; CFPAC-1 cells expressing Flag-TMBIM1; extracts incubated overnight at 4 °C with Protein A/G magnetic beads and anti-Flag antibody; three washes with IP buffer; silver staining and immunoblot for YBX1; vector control
[2] = biological target: Y box binding protein 1 (YBX1) (human (endogenous in CFPAC-1, Capan-1 and PANC-1)) (UniProt P67809); assay: co-IP; endogenous proteins in Capan-1 and PANC-1 extracts; Protein A/G magnetic beads with YBX1 antibody or IgG control; three washes with IP buffer; Western blot

| binding [1] | binding [2] | Molecule |
| --- | --- | --- |
| binds |  | Y box binding protein 1 (YBX1) (from UniProt P67809 1-324) |
|  | binds | transmembrane BAX inhibitor motif-containing 1 (TMBIM1), endogenous (protein, UniProt Q969X1 1-311) MSNPSAPPPYEDRNPLYPGPPPPGGYGQPSVLPGGYPAYPGYPQPGYGHPAGYPQPMPPTHPMPMNYGPGHGYDGEERAVSDSFGPGEWDDRKVRHTFIRKVYSIISVQLLITVAIIAIFTFVEPVSAFVRRNVAVYYVSYAVFVVTYLILACCQGPRRRFPWNIILLTLFTFAMGFMTGTISSMYQTKAVIIAMIITAVVSISVTIFCFQTKVDFTSCTGLFCVLGIVLLVTGIVTSIVLYFQYVYWLHMLYAALGAICFTLFLAYDTQLVLGNRKHTISPEDYITGALQIYTDIIYIFTFVLQLMGDRN |
